Results from patent US20200362018A1.

Biological target: 20S proteasome (source not stated for the experiment)
Test: native MS with MS/MS of the isolated 20S proteasome peaks

B1: human NQO2 (recombinant, His-TEV fragment removed) (enzyme, UniProt P16083 1-231, looked up)
chain: MAGKKVLIVYAHQEPKSFNGSLKNVAVDELSRQGCTVTVSDLYAMNLEPRATDKDITGTLSNPEVFNYGVETHEAYKQRSLASDITDEQKKVREADLVIFQFPLYWFSVPAILKGWMDRVLCQGFAFDIPGFYDSGLLQGKLALLSVTTGGTAEMYTKTGVNGDSRYFLWPLQHGTLHFCGFKVLAPQISFAPEIASEEERKGMVAAWSQRLQTIWKEEPIPCTAHWHFGQ
**Q.** For B1, which binding is on record?
**A.** binds

These are yes or no findings as the source states them, for the method shown. Binding calls can cover weak binding; strength is not graded here. Where a sequence is shown, tags or fusion partners need not be part of it.
